These results are taken from PMC6584500, “Small-molecule targeting of MUSASHI RNA-binding activity in acute myeloid leukemia” (Nature Communications, 2019).

Chains of the proteins cited; added tags and fusions are not shown.
UniProt Q96DH6, whole entry F66A/F97A/R100A: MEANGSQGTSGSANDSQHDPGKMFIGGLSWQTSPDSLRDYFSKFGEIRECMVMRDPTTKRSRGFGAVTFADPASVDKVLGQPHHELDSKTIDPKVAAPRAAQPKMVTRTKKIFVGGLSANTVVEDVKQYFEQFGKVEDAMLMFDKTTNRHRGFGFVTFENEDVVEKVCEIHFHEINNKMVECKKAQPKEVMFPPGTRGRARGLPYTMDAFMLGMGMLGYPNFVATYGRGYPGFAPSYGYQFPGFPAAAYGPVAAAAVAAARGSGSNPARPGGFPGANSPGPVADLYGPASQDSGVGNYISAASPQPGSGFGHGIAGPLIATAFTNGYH

For at least one entry, the source does not settle the construct or the ends of the probe. For some assays here: At least one verdict rests on a figure or table, not on a statement of the authors.

Data set [1] concerns the target MSI2 triple mutant F66A,F97A,R100A (Homo sapiens) (UniProt Q96DH6). In words: MST. As to conditions: MST: 50 mM HEPES, 100 mM NaCl, 0.05% Tween-20, pH 7.4, RT; recombinant protein; protein details: GST, Flag.
Another data set has as its target MSI2 WT (Homo sapiens) (UniProt Q96DH6). In words: fluorescence polarization. As to conditions: inhibited by Ro 08-2750 (IC50 2.7 uM, small molecule); C9 spacer; recombinant protein; protein details: GST, Flag; label: Cy3. On the technique in general: Polarisation of emitted light reports the rotation of a fluorescent probe.

For GUAGUAGUAGUAGUA [15-nt MSI RNA oligo], the Kd in data set [1] is over 50 µM. “GUAGUAGU [8-nt MSI RNA oligo (FP probe)]”: the binding result with MSI2 WT (Homo sapiens) was “binds”.

The term Kd denotes the constant that tells how readily two partners part at equilibrium.
